# Data: PubChem BioAssay AID602346 (Broad Institute, 2012)
# Hit rate of the full screen: of about 340,000 compounds, about 1,200 (0.35%) were called active. The shares of active, inactive and inconclusive entries below differ from those in the screen. No stated cut-off is given here; in the data, active means inhibition above about 50% (passing the limit was not always enough); inconclusive means no clear call, values can overlap the other calls; inactive means below about 31%.
# Test: blockers of Vif multimerization in cells – imaging, HEK293T, single point, primary screen (AID 602346)
# Details: Vif self-association by quenched fluorescence, 24 h, at 7.49 µM, hits give high values
row,Structure (SMILES),inhibition
1,O=C(NCc1cccc2[nH]ccc12)C1CCC(=O)N(CCc2ccccc2)C1 (stereo not given),inactive: -8.11%
2,CCc1cc(=O)oc2cc(OC(C)C(=O)NCc3ccccn3)ccc12 (stereo not given),active: 58.4%
3,NC(=O)COC(=O)[C@@H]1CC(O)CN1S(=O)(=O)c1ccc2c(c1)OCCO2 (stereo not given in full),inconclusive: 33.8%
4,Cn1c(=O)c(=O)n(C)c2cc(S(=O)(=O)NCCOc3ccccc3)ccc21,inconclusive: 42%
5,O=C(c1cccc(C(F)(F)F)c1)N1CCN(c2cc(=O)[nH]nc2-c2ccccc2)CC1,inconclusive: 23.7%
6,CC1=C(N2CCOCC2)CCC1=O,inactive: 7.03%
7,C/C(=N\Nc1ccc(Cl)c(C(=O)O)c1)c1cccc2ccccc12,active: 65.1%
8,CCNC(=O)C(=O)NCCc1ccc(Cl)cc1,inconclusive: 19.2%
9,O=C1CC(SCc2nc3ccccc3[nH]2)C(=O)N1c1cccc(Cl)c1 (stereo not given),inconclusive: 21.8%
10,Cc1nnc(SCC(=O)Nc2nccs2)s1,inactive: -1.72%
11,Cn1c(=O)c2nc(SCCO)n(C)c2n(C)c1=O,inconclusive: 38.5%
12,O=C(NC(=S)Nc1ccc2oc(=O)ccc2c1)c1cccc(F)c1,inconclusive: 46.4%
13,CC1(C)CC(=O)c2cnc(N3CCc4ccccc43)nc2C1,inactive: -5.13%
14,COCC(=O)N(Cc1ccccc1)c1ccccn1,inactive: 1.4%
15,COc1ccc(C(=O)Nc2cccc([N+](=O)[O-])c2)cc1Br,active: 74.5%
16,COC(=O)c1cc(S(=O)(=O)NCc2ccccc2)c[nH]1,inconclusive: 1.78%
17,CCC(C)Sc1nnc(CSc2nc3nc(C)cc(C)n3n2)o1 (stereo not given),inconclusive: 45.9%
18,COc1ccc(CN2CCNC(=O)C2CC(=O)N(C)CCC2CCOCC2)cc1OC (stereo not given),inactive: -1.9%
19,O=C(CN(Cc1ccccc1)C(=O)CNS(=O)(=O)c1ccc(F)cc1)NCc1ccco1,inactive: 8.79%
20,Cc1cccn2c(=O)c(/C=C3\SC(=S)NC3=O)c(NCCCN3CCOCC3)nc12,active: 82.8%
21,COc1cc(CNC(=O)CCCCCCC(C)C)ccc1O,inconclusive: 45.6%
22,CCOc1ccc(OCC)c(NC(=O)C2CCCN(S(=O)(=O)c3c(C)noc3C)C2)c1 (stereo not given),inconclusive: 16.1%
23,CCO[C@@H]1OC(C(=O)NC2CC2)=C[C@H](c2c[nH]c3ccccc23)[C@H]1CCCO,inconclusive: 32.6%

row,Structure (SMILES),inhibition
1,Cc1cccc(NC(=O)/C(C#N)=C/c2cn(CC(=O)NCc3ccco3)c3ccccc23)c1C,active: 72.3%
2,COc1ccc(OC)c(N(CC(=O)Nc2ccc(NC(C)=O)cc2)S(C)(=O)=O)c1,inactive: -1.57%
3,COc1ccc(S(=O)(=O)NCC2CCCN(Cc3cn(C)nc3C)C2)cc1 (stereo not given),inconclusive: 30.9%
4,Cc1onc(-c2ccccc2Cl)c1C(=O)N1CCN(C)CC1,active: 50.7%
5,COc1ccc(C)cc1S(=O)(=O)Nc1cccnc1,inconclusive: 23%
6,O=C(CSc1nnnn1Cc1ccccc1)Nc1ccccc1,inconclusive: 27.3%
7,Cc1nc(SCC(=O)N2CCCC2=O)nc(C)c1C,inconclusive: 37.3%
8,O=C(COC(=O)CNS(=O)(=O)c1cc(C(F)(F)F)ccc1Cl)NC1CC1,inactive: -0.0855%
9,COc1cccc(CC(=O)NCC2COc3ccccc3O2)c1OC (stereo not given),inconclusive: 41%
10,Cc1nn(C)c(C)c1NC(=O)COc1ccccc1C#N,inconclusive: 34.9%
11,COc1cc(-c2nc3n(n2)C(c2ccc(F)cc2)C2=C(CCCC2=O)N3)cc(OC)c1OC (stereo not given),inconclusive: 33.9%
12,O=C(N/C(=C/c1ccc(Cl)cc1)c1nc2ccccc2[nH]1)c1ccco1,inactive: 5.88%
13,COc1ccc(C2SCC(C(=O)NCc3ccc(F)cc3)N2C(C)=O)cc1 (stereo not given),inactive: -7.56%
14,CCOc1ccc(C(=O)Nc2nccs2)cc1[N+](=O)[O-],inconclusive: 28.6%
15,Cc1[nH]n(-c2ccccc2)c(=O)c1N=Nc1nccs1,inconclusive: 20.7%
16,O=C(CS(=O)CC(=O)N(CC(=O)NC1CCCC1)c1ccc2c(c1)OCCO2)Nc1ccc(F)cc1 (stereo not given),inconclusive: 25.1%
17,CC(NC(=O)C1CCC1)c1ccccc1 (stereo not given),inconclusive: 29%
18,O=C(NCc1ccc2c(c1)OCO2)c1cc([N+](=O)[O-])ccc1N1CCOCC1,inconclusive: 39.7%
19,C=CCc1ccc(OCC(O)CN2CCc3ccccc3C2)c(OC)c1 (stereo not given),inconclusive: 31.2%
20,CC1(C)CC(=O)C2=C(C1)OC(N)=C(C#N)C2c1ccc(OC(=O)N2CCOCC2)cc1 (stereo not given),inconclusive: 33.4%
21,COCCNc1oc(/C=C/c2ccccc2)nc1C#N,active: 55.3%
22,O=c1c2ccccc2nnn1CSc1nnc(Nc2ccccc2)s1,active: 50.6%
23,Cn1c(=O)c2c(ncn2CC(=O)N2CCN(S(=O)(=O)c3ccc(F)cc3)CC2)n(C)c1=O,inconclusive: 21.8%

# Some of the entries above, reformatted:
row	Structure (SMILES)	inhibition
2	CCc1cc(=O)oc2cc(OC(C)C(=O)NCc3ccccn3)ccc12 (stereo not given)	active: 58.4%
3	NC(=O)COC(=O)[C@@H]1CC(O)CN1S(=O)(=O)c1ccc2c(c1)OCCO2 (stereo not given in full)	inconclusive: 33.8%
4	Cc1onc(-c2ccccc2Cl)c1C(=O)N1CCN(C)CC1	active: 50.7%
23	Cn1c(=O)c2c(ncn2CC(=O)N2CCN(S(=O)(=O)c3ccc(F)cc3)CC2)n(C)c1=O	inconclusive: 21.8%

# (further entries)

row,Structure (SMILES),inhibition
1,CC(C)NC(=O)C1(C)CCN1Cc1cccc(C#N)c1 (stereo not given),inconclusive: 30.6%
2,O=C(O)c1ccc(N/N=C/C=C/c2ccccc2[N+](=O)[O-])cc1,active: 54%
3,COc1ccc(C(=O)Nc2cccc(-c3nc4ncccc4o3)c2C)cc1,inconclusive: 32.9%
4,CCCOc1ccc(C(=O)N(CC(C)C)c2c(N)n(Cc3ccccc3)c(=O)[nH]c2=O)cc1,inactive: -8.31%
5,CC(C)C[C@H]1CNC(=S)N1C[C@H]1CCCN1C[C@H](CC(C)C)N1C[C@H](Cc2ccc(O)cc2)N(CCc2ccccc2)C1=S,inconclusive: 36%
6,Cc1n[nH]c(=O)c2c(NC(=O)CSc3ncccn3)oc(C)c12,inconclusive: 47.1%
7,Oc1ccc(-c2csc(Nc3cccc4ccccc34)n2)cc1O,inactive: -2.82%
8,Cc1nc2c(oc3ccccc32)c(=O)o1,inconclusive: 25.9%
9,O=C(NNC(=O)C12CC3CC(CC(C3)C1)C2)c1ccccn1,inactive: 22.9%
10,COc1ccc(OCCN2CCC(C(=O)NC(c3ccccn3)c3ccccc3OC)CC2)cc1 (stereo not given),active: 50.9%
11,O=C(CSc1nnc2ccc(-c3cccnc3)nn12)Nc1ccccc1,inconclusive: 39.6%
12,CCCCn1c(N)c(N(CC)C(=O)c2cc(CC)c(C)s2)c(=O)[nH]c1=O,active: 54.8%
13,CC(C)(C)OC(=O)N1Cc2cc3ccccc3nc2C1CO (stereo not given),inconclusive: 30.7%
14,Cn1cccc1C(=O)NC(=O)COC(=O)c1ccc(S(C)(=O)=O)c([N+](=O)[O-])c1,inconclusive: 28.5%
15,FC(F)(F)c1cnc(Oc2ccccc2-c2nnco2)c(Cl)c1,inconclusive: 32.2%
16,O=C(Cn1cc[n+](CC(=O)c2ccc(Cl)cc2Cl)c1)c1ccc(Cl)cc1Cl,inactive: -0.039%
17,COc1ccc2c(c1)O[C@H]1c3ccc(O)cc3OC[C@@H]21,inconclusive: 23.8%
18,Cc1ccc(S(=O)(=O)N2CCOCC2)cc1C(=O)OCC(=O)NC1CCS(=O)(=O)C1 (stereo not given),inconclusive: 42.2%
19,Cc1ccc(-n2nnc3c(=O)n(CC(=O)OCc4ccccc4)cnc32)cc1,active: 75.4%
20,COCCn1c(-c2ccc(OC)cc2)cnc1N,inconclusive: 43.7%
21,O=C(CSc1nnc(-c2ccccc2O)n1-c1ccccc1)Nc1cccc(C(=O)O)c1,inactive: 10.4%
22,O=C(CCNC(=O)c1ccc([N+](=O)[O-])cc1)Nc1ccc(S(=O)(=O)N2CCOCC2)cc1,inconclusive: 21.9%
23,Cc1cccc(/C=C/C(=O)c2ccc([N+](=O)[O-])o2)c1,active: 62.4%

row,Structure (SMILES),inhibition
1,COC(=O)CSc1nc(C2CC2)cc(C(F)(F)F)c1C#N,active: 79%
2,O=C(COC(=O)c1cc([N+](=O)[O-])ccc1N1CCOCC1)Nc1ccc(Cl)cn1,inconclusive: 39.7%
3,COC(=O)c1cc(OC)c(OC)cc1NC(=O)c1cccc(C)c1,inactive: -5.88%
4,COc1cccc(Nc2nc(CN3CCOCC3)nc3sc4c(c23)CCCC4)c1,active: 95.7%
5,CCN(CC)CCC(=O)N1C/C(=C/c2ccccc2)C(=O)/C(=C\c2ccccc2)C1,inconclusive: 39.8%
6,CN(Cc1ccccc1)C(=O)CCC1CCN(C(=O)c2ccco2)CC1,active: 132%
7,Cc1c(C(=O)N2CCN(c3ccccc3)CC2)sc2ncnc(N3CCN(c4ccccn4)CC3)c12,inactive: 19.8%
8,Cc1cc(NC(=O)c2ccc3sc([C@@H]4O[C@H](CO)[C@H](O)[C@H](O)[C@H]4O)nc3c2)no1,inactive: -0.934%
9,COc1ccccc1C(=O)NCC(=O)Nc1ccc2c(c1)CCC2,inactive: -3.07%
10,CCC(C)c1ccc(OCC(=O)O)cc1 (stereo not given),inconclusive: 31.5%
11,CN(Cc1ccc(F)cc1)C(=O)COc1ccc2ccccc2c1,inconclusive: 28%
12,COc1ccccc1NC(=O)c1sc2nc(Cc3ccccc3)cc(C(F)(F)F)c2c1N,inconclusive: 44.9%
13,CC1CC2(CCCC2)Nc2ccc(F)cc21 (stereo not given),inactive: -8.91%
14,Cc1cccc(C)c1-n1c(C)cc(/C=N/NC(=O)c2ccncc2)c1C,inconclusive: 25%
15,Cc1ccc2[nH]c(=O)c3cc(C(=O)N(C)C4CCCCC4)sc3c2c1,inconclusive: 25.3%
16,Cc1ccc(S(=O)(=O)NCCC(=O)NC2CC2)cc1,inconclusive: 28.2%
17,Cc1cccc(Cl)c1OCCCCn1ccnc1,inactive: -6.13%
18,CSc1nc(O)c(C(c2ccccc2Cl)c2c(O)nc(SC)[nH]c2=O)c(=O)[nH]1,inconclusive: 34.8%
19,C=C1CC(COc2cc(=O)oc3ccccc23)(c2ccccc2)OC1=O (stereo not given),active: 56.2%
20,CCC(C)NC(=O)CCS(=O)(=O)c1ccc(Br)s1 (stereo not given),inconclusive: 23.6%
21,Cc1ccc(CNC(=O)c2cc3c(=O)n4ccccc4nc3n(CC3CCCO3)c2=N)cc1 (stereo not given),inactive: 2.25%
